Laboratory results reported in PubChem BioAssay AID588499 (NMMLSC, 2011).
About 610 (0.17%) of roughly 360,000 compounds were called active. The inconclusive results got no clear call from the source; some entries with a clear call stand among them for comparison. No stated cut-off is given here; in the data, active means inhibition above about 30%; inconclusive means no clear call, values can overlap the other calls; inactive means below that. Non-standard residues stand in square brackets, D forms with d. Residues, ends and D or L forms follow the SMILES beside them. pGlu = O=C1CC[CH](C(=O)O)N1

These molecules were tested on Botulinum neurotoxin type A light chain protease (Clostridium botulinum A str. ATCC 3502) (assay: blockers of BoNT/A LC substrate cleavage – biochemical, flow cytometry, MLPCN library, primary screen (AID 588499; further: plate controls were buffer without enzyme for full effect and enzyme alone for no effect)). Conditions: multiplex microsphere protease substrate cleavage, at 10 µM, stronger effect = higher value.

| SMILES | inhibition |
| --- | --- |
| Cn1nc2sc3ccccc3n2c(=O)c1=O | inconclusive: -0.8% |
| COc1ccc(C2C(C#N)=C(N)Oc3c2c(C)nn3-c2ccccc2)cc1Cn1nc(C)c([N+](=O)[O-])c1C (stereo not drawn) | inactive: 0.2% |
| COc1ccc(NC(C)=O)cc1S(=O)(=O)N1CCN(C(=O)c2ccccc2F)CC1 | inactive: 0.3% |
| CCOc1cc(S(=O)(=O)NCc2ccccc2)c(OCC)cc1-n1cnnn1 | inconclusive: 6.7% |
| O=C1NC2(CCCC2)N=C1c1ccc(Cl)cc1 | inactive: -2.1% |
| Cc1ccc(NC(=O)CCC(=O)OCC(F)(F)C(F)F)cc1 | inconclusive: 2.7% |
| COc1ccc(C(=O)N2CCCC(N3CCN(c4ccccc4F)CC3)C2)c(OC)n1 (stereo not drawn) | inactive: 0.8% |
| N#CC1=C2SCC(O)(c3ccccc3)N2C(=O)CC1c1cccs1 (stereo not drawn) | inconclusive: 0.6% |
| C=CCc1cc(S(=O)(=O)c2ccc(O)c(CC=C)c2)ccc1O | inconclusive: 7.6% |
| CCCC(=O)Nc1cc(-c2nn(C)c(=O)c3ccccc23)ccc1OC | inconclusive: -1.1% |
| CCOC(=O)/C(C#N)=C1\CC2CCC1(C)C2(C)C (stereo not drawn) | inactive: -0.4% |
| Cc1ccc(Cl)c(OCCCCN(C)Cc2ccccc2)c1 | inconclusive: -0.9% |
| COc1ccc(C2CC(=O)C3=C(C2)NC(C)=C(C(=O)Nc2ccccc2C)C3c2coc3ccc(C)cc3c2=O)cc1OC (stereo not drawn) | inconclusive: 2.4% |
| O=c1[nH]c(=S)n(C2CCCCC2)c(O)c1/C=N/N1CCOCC1 | inconclusive: -20.2% |
| COc1ccc(C(=O)CC2OC(=O)c3ccccc32)cc1OC (stereo not drawn) | inconclusive: 1% |
| O=C(CN1C(=O)c2cccc3cccc1c23)NCc1ccc2c(c1)OCO2 | inconclusive: -1.8% |
| COc1cc(CC(=O)OCC(=O)c2c[nH]c3ccccc23)cc(OC)c1OC | active: 50.2% |
| Cc1ccnc(-n2c(C)cc(C=C3C(=O)N(C)C(=S)N(C)C3=O)c2C)c1 | active: 31.6% |
| Fc1ccc(CNC(=S)NCc2ccc(F)cc2)cc1 | inconclusive: 0.4% |
| CC(C)(C)c1ccc(S(=O)(=O)N2CCC(O)(c3ccc(Cl)cc3)CC2)cc1 | inconclusive: -44.2% |
| COc1cccc(N2C(=O)C(c3ccccc3)=C(c3nc4ccccc4s3)C2NC(C)=O)c1 (stereo not drawn) | inconclusive: 3.4% |
| Cn1c(=O)c2c(ncn2Cc2ccc(Cl)c(Cl)c2)n(C)c1=O | inconclusive: 5.5% |
| COc1ccc2c(c1)CCc1c(C(=O)N3CCc4ccccc4C3)noc1-2 | inconclusive: -3.5% |
| Cc1ccc(-c2nc(C(F)(F)F)cc(=O)[nH]2)cc1 | inconclusive: 7.8% |

| SMILES | inhibition |
| --- | --- |
| O=C(Nc1nc2ccccc2n1CCN1CCOCC1)c1ccc(Cl)cc1 | inconclusive: 2.3% |
| COc1ccc2oc(C(=O)OCC(=O)NC(C)(C#N)C3CC3)c(C)c2c1 (stereo not drawn) | inconclusive: -2.9% |
| COc1cccc2c1NC(C(=O)O)C1CC=CC21 (stereo not drawn) | inconclusive: 1.1% |
| Cc1onc(-c2ccc(Cl)cc2)c1-c1ccnc(SCC(=O)Nc2ccc(C(C)C)cc2)n1 | inconclusive: 12.7% |
| CC1CCc2sc(C(=O)NCc3ccc(F)cc3)cc2C1 (stereo not drawn) | inconclusive: -3.8% |
| CN(CC(=O)Nc1cccc(F)c1)C(=O)c1cccnc1Sc1ccccc1Cl | active: 37.8% |
| O=C(CN1CCSCC1)N/N=C/c1ccc(F)cc1 | inconclusive: 5.3% |
| COc1cc2c(cc1NC(=O)C(C)OC(=O)c1ccc(S(=O)(=O)Nc3ccccc3Cl)cc1)oc1ccccc12 (stereo not drawn) | inactive: 0.9% |
| Cn1c(=O)[nH]c(=O)c2c1nc(Br)n2CCOc1ccccc1 | inactive: -0.8% |
| COc1ccc(N(CC(=O)NCCSC2CCCCC2)S(C)(=O)=O)c(OC)c1 | inconclusive: -8.1% |
| CCOc1ccc(OCC)c(NC(=O)C2CCN(c3cnccn3)CC2)c1 | inactive: 0.3% |
| Cc1cc(=O)oc2cc(OCC(=O)NCC3CCCO3)ccc12 (stereo not drawn) | inactive: -0.9% |
| CCc1ccc(NC2=CC(=O)CC(C)(C)C2)cc1 | inactive: -0.2% |
| Cn1c(=O)oc2cc(S(=O)(=O)NCCC(=O)N3CCc4ccccc43)ccc21 | inconclusive: 3.3% |
| Cc1cc2c(n1-c1ccc(C(N)=O)cc1)CC(C)(C)CC2=O | inconclusive: -0.4% |
| Cc1cc(C)n2nc(S(=O)(=O)N(C)Cc3ccccc3)nc2n1 | inconclusive: 1.5% |
| CS(=O)(=O)N(CC(=O)N1CCN(c2ccc(F)cc2)CC1)c1ccc(F)c(Cl)c1 | inconclusive: -1.5% |
| O=C(c1ccccc1)N1CCCN(c2nccc(C(F)(F)F)n2)CC1 | inconclusive: 0.8% |
| COc1cc(OC)cc(C(=O)NCc2ccc3[nH]c(C)cc3c2)c1 | active: 48.1% |
| Cc1ccc(NC(=O)CSc2nnc(-c3ccncc3)n2C)cc1C | inconclusive: -1.3% |
| Cc1cc(C)nc(S/C=C/C(=O)c2ccccc2)n1 | inconclusive: 2.2% |
| CN1CCN(c2cc(C(F)(F)F)nc3ccc(F)cc23)CC1 | inconclusive: 6% |
| Nc1c(Br)cc2c([nH]c(=O)c3ccccc32)c1Br | inactive: 2% |
| O=c1ccccn1CCOc1ccc(Cl)cc1 | inconclusive: -15% |

Sorted by number of heavy atoms (high to low): some entries from above.

| SMILES | inhibition |
| --- | --- |
| COc1cc2c(cc1NC(=O)C(C)OC(=O)c1ccc(S(=O)(=O)Nc3ccccc3Cl)cc1)oc1ccccc12 (stereo not drawn) | inactive: 0.9% |
| Cc1onc(-c2ccc(Cl)cc2)c1-c1ccnc(SCC(=O)Nc2ccc(C(C)C)cc2)n1 | inconclusive: 12.7% |
| COc1ccc2oc(C(=O)OCC(=O)NC(C)(C#N)C3CC3)c(C)c2c1 (stereo not drawn) | inconclusive: -2.9% |
| O=C(CN1CCSCC1)N/N=C/c1ccc(F)cc1 | inconclusive: 5.3% |

Next part.

| SMILES | inhibition |
| --- | --- |
| CCS(=O)(=O)N1CCC2(CC1)OCCN2S(=O)(=O)c1ccccc1 | inactive: -0.4% |
| CCOC(=O)c1c(-c2cccs2)csc1NC(=O)c1ccco1 | inactive: -1.6% |
| CC(=O)Nc1nc(NC(=O)C(Cl)(Cl)Cl)n(-c2ccccc2)n1 | inconclusive: -42.9% |
| C=CCNc1oc(/C=C/c2ccccc2)nc1C#N | inactive: -1.2% |
| Nc1nc2ccccc2n1C(=O)c1ccc(F)cc1 | inactive: -0.3% |
| N#C/C(=C\c1cccs1)C(=O)N1CCOCC1 | inconclusive: -39.6% |
| O=C(NNC(=O)c1csc(-c2cccnc2)n1)c1ccccc1 | inconclusive: -3.8% |
| O=C(O)[C@@H]1Cc2ccccc2N1 | inconclusive: 8.4% |
| COc1cccc(Nc2nc(N)nc(C(F)(F)F)n2)c1 | inconclusive: -1.2% |
| O=C(NCc1ccccc1)C1CCCN(C(=O)Nc2ccccc2)C1 (stereo not drawn) | inconclusive: -1.4% |
| O=C(NC1CCN(Cc2ccccc2)CC1)c1ccc(CS(=O)c2ccccc2Cl)o1 (stereo not drawn) | inactive: 0.1% |
| CCCc1c(C(=O)Nc2cc(C)on2)cnn1-c1ccccc1 | inconclusive: 2.6% |
| COC(=O)C(Cc1cnc[nH]1)NC(=O)C1CCC(=O)N1 (stereo not drawn) ([pGlu]-His-OMe; configuration not given here) | inconclusive: 0.2% |
| COc1ccc(N=C2SCC(c3ccc(C)cc3)=NN2CCO)cc1 | inconclusive: -1.5% |
| COc1ccc(-c2nnc(SCC(=O)/C(C#N)=C(\C)N)o2)cc1 | inconclusive: -2% |
| COc1ccc(OCC(=O)NCc2ccc(Cl)cc2)cc1 | inactive: -2.9% |
| CCCCn1c2ccccc2c2cc(CC(N)=O)ccc21 | inconclusive: -39% |
| Cc1nccn1CC(=O)N/N=C/c1cc(Br)cs1 | inconclusive: -43.7% |
| O=C(CNC(=O)c1ccncc1)N/N=C/c1ccc(Br)cc1 | inconclusive: -2.4% |
| Cc1oc(C)c(S(=O)(=O)NCc2cccs2)c1C(=O)O | inconclusive: 0.4% |
| N#Cc1cccc(-c2csc(C(O)c3ccco3)n2)c1 (stereo not drawn) | inactive: -0.1% |
| COc1cccc(C(=O)NN=C2CCCC2)c1 | inconclusive: -20.3% |
| CCN(CC(=O)Nc1c(F)cccc1F)C(=O)c1csc2c1CCCC2 | inconclusive: 0.1% |
| CCOc1cccc2cc(C(=O)N3CCN(C/C=C/c4ccccc4)CC3)c(=O)oc12 | inconclusive: 0.5% |

| SMILES | inhibition |
| --- | --- |
| Cc1ccccc1-n1c(O)c(C=Nc2ccc3c(c2)OCO3)c(=O)[nH]c1=O | inconclusive: 1.2% |
| O=C(N/N=C/C(Br)=C/c1ccccc1)c1n[nH]c2c1CCC2 | inconclusive: -1.1% |
| Cc1ccc(OCC(=O)OCC(=O)N2c3ccccc3CC2C)cc1C (stereo not drawn) | inactive: -0.5% |
| COCC(=O)Nc1nc2n(n1)C(c1ccc(Cl)cc1)CC(c1ccc(OC)cc1)N2 (stereo not drawn) | inactive: 0.2% |
| COc1ccc(-c2ccc(SCC(=O)N3c4ccccc4CC3C)nn2)cc1OC (stereo not drawn) | inconclusive: 4.2% |
| O=C(NN1C(=O)C2C3C=CC(C3)C2C1=O)c1ccccc1 (stereo not drawn) | inactive: -0.4% |
| COc1ccc(CCNCc2ccncc2)cc1OC | inconclusive: -2.5% |
| COc1ccc(-c2nn(-c3ccccc3)cc2C(=O)N2CCN(S(=O)(=O)c3ccccc3C#N)CC2)cc1 | inconclusive: -1.6% |
| CCCCn1c(CCc2ccccc2)nc2cc3[nH]c(=O)c(C(C)C)nc3cc21 | inactive: 4.8% |
| CCN(CC)Cc1c(O)c(Cl)cc2c(C)c(C)c(=O)oc12 | inconclusive: 1.7% |
| Cc1cccc(CSc2nnc(-c3ccco3)o2)c1 | inactive: -0.7% |
| N/C(=N\N=C\c1ccc(Br)o1)c1nonc1N | inconclusive: 14.8% |
| O=C(NNC(=O)c1cc(-c2ccccc2Cl)nc2ccccc12)c1csc(N2CCOCC2)n1 | inconclusive: 2.4% |
| COc1ccc(OCC(=O)O/N=C(\N)c2ccc(OC)cc2)cc1 | inconclusive: -1.2% |
| Cc1nc2ccccc2n1CC(O)Cn1c2ccccc2c2ccccc21 (stereo not drawn) | inconclusive: 3.6% |
| Cc1ccc(C(=O)/C=C/c2ccc3ncccc3c2)cc1 | inconclusive: -1.6% |
| Cc1ccc(Cl)cc1N1CCN(S(=O)(=O)c2c(C)[nH]c(=O)[nH]c2=O)CC1 | inconclusive: 1.9% |
| CNNC(=S)NCCC1=CCCCC1 | inconclusive: -0.7% |
| O=c1c2ccccc2[se]n1-c1ccccc1 | active: 81.1% |
| CCCNC(=O)Nc1cccc(C(=O)OC)c1 | inconclusive: -0.8% |
| O=C(CN1CCN(S(=O)(=O)c2ccc(Cl)s2)CC1)NCc1ccc(Cl)cc1 | inconclusive: 5.6% |
